In PMC8096265, “A functional LSD1 coregulator screen reveals a novel transcriptional regulatory cascade connecting R-loop homeostasis with epigenetic regulation” (Nucleic Acids Research, 2021) one finds binding data, which are given here for one molecule.

Results are given in words; binding and its absence hold for the method and conditions named. Some binding calls cover weakened binding; strength is not graded here. Where a sequence is shown, tags or fusion partners need not be part of it.

The assay addresses T1, H3K27 15-mer peptide of the synthesized peptide array, trimethylated at K27.
T1 sequence (peptide, trimethyl-lysine at K27): LATKAARKSAPATGG
As to the kind of experiment: peptide or protein array; synthesized 15-mer peptide arrays (SPOT synthesis on cellulose membrane) incubated with 50 nM DDX19A-GST in interaction buffer (100 mM KCl, 20 mM HEPES pH 7.5, 1 mM EDTA pH 8, 10% glycerol), 1 h, room temperature; detected with anti-GST antibody; both purified.

B1: GST-DDX19A (recombinant full-length DEAD-box helicase 19A) (enzyme, UniProt Q9NUU7 1-478)
chain: MATDSWALAVDEQEAAVKSMTNLQIKEEKVKADTNGIIKTSTTAEKTDEEEKEDRAAQSLLNKLIRSNLVDNTNQVEVLQRDPNSPLYSVKSFEELRLKPQLLQGVYAMGFNRPSKIQENALPMMLAEPPQNLIAQSQSGTGKTAAFVLAMLSRVEPSDRYPQCLCLSPTYELALQTGKVIEQMGKFYPELKLAYAVRGNKLERGQKISEQIVIGTPGTVLDWCSKLKFIDPKKIKVFVLDEADVMIATQGHQDQSIRIQRMLPRNCQMLLFSATFEDSVWKFAQKVVPDPNVIKLKREEETLDTIKQYYVLCSSRDEKFQALCNLYGAITIAQAMIFCHTRKTASWLAAELSKEGHQVALLSGEMMVEQRAAVIERFREGKEKVLVTTNVCARGIDVEQVSVVINFDLPVDKDGNPDNETYLHRIGRTGRFGKRGLAVNMVDSKHSMNILNRIQEHFNKKIERLDTDDLDEIEKIAN
For the molecule B1, the binding result was “binds”.
